According to publication PMC12120744:
These are yes or no findings as the source states them, for the method shown. Binding seen in cells or lysates may run through a third protein. These calls come from enrichment with a bait or labelling near it, and not all partners need be listed. Tags and fused reporters may be left off the sequences shown.

Sequences of proteins named here, by UniProt entry; tags and fusion partners are left off. Residues count along the entry.
UniProt P01106, residues 16-454: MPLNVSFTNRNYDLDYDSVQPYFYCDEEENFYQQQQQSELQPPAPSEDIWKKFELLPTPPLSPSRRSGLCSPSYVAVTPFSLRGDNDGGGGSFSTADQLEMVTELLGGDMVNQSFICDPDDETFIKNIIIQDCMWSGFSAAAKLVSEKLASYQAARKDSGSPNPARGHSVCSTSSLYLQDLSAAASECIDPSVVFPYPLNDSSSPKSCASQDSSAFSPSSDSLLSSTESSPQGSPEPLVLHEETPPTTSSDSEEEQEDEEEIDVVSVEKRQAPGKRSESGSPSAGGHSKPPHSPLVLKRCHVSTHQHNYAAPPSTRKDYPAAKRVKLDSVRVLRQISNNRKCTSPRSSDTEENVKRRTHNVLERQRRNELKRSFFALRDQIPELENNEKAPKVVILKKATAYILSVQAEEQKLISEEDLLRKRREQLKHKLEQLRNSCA

Target: T1, Flag-RNF112 (overexpressed in T24 cells) (UniProt Q9ULX5)
T1 sequence: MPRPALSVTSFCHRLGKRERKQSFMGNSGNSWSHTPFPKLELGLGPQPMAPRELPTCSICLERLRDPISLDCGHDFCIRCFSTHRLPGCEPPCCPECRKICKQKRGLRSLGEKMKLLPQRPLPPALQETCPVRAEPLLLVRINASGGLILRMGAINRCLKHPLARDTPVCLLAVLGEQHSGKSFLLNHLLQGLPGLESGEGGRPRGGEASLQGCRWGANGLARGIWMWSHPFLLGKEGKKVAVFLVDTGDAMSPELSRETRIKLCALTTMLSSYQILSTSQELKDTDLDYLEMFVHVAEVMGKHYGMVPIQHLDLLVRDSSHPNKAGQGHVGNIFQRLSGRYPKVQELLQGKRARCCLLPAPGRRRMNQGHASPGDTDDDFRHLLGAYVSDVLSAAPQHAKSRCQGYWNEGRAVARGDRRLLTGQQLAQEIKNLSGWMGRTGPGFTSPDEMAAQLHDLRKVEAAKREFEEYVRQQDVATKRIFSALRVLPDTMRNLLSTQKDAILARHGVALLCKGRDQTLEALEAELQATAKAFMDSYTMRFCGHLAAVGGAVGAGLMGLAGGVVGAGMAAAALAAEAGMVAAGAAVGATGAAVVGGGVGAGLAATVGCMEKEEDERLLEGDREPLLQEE
Assay: affinity purification with mass spectrometry; Flag-RNF112 overexpressed in T24 cells for two days; IP, SDS-PAGE, silver staining, mass spectrometry

binding: binds
Substance: c-Myc (endogenous, T24 cells) (from UniProt P01106-1 1-439)
